Assay results: PMC11199475
Results are given in words; binding and its absence hold for the method and conditions named. In cells and extracts the contact can be indirect. Binding can be weak; no strength is given. Where a sequence is shown, tags or fusion partners need not be part of it.

B1: LOG, BiFC fusion (enzyme, UniProt Q5ZC82 1-242)
chain: MAMEAAAERSAGAGAAATAAPESGGGGAGERRSRFRRICVYCGSAKGRKASYQDAAVELGKELVERGIDLVYGGGSIGLMGLVSHAVHDGGRHVIGVIPKSLMPREVTGEPVGEVRAVSGMHERKAEMARFADAFIALPGGYGTLEELLEVITWAQLGIHKKPVGLLNVDGFYDPFLSFIDMAVSEGFIAEDARRIIISAPTARELVLKLEEYVPEYEVGLVWDDQMPHSFAPDLETRITSS
B2: LOG, LCI fusion (enzyme, UniProt Q5ZC82 1-242)
chain: MAMEAAAERSAGAGAAATAAPESGGGGAGERRSRFRRICVYCGSAKGRKASYQDAAVELGKELVERGIDLVYGGGSIGLMGLVSHAVHDGGRHVIGVIPKSLMPREVTGEPVGEVRAVSGMHERKAEMARFADAFIALPGGYGTLEELLEVITWAQLGIHKKPVGLLNVDGFYDPFLSFIDMAVSEGFIAEDARRIIISAPTARELVLKLEEYVPEYEVGLVWDDQMPHSFAPDLETRITSS

Key:
[1] = target: OsNRFG6, BiFC fusion (rice (Oryza sativa L.)); assay: split reporter; BiFC: nYFP and cYFP fusions (p2YN/C system) co-infected into Nicotiana benthamiana leaves; confocal microscopy 3-5 days post infection
[2] = target: OsNRFG6, LCI fusion (rice (Oryza sativa L.)); assay: split reporter; luciferase complementation imaging (LCI): nLUC and cLUC fusions (pCAMBIA1300) co-transformed into Nicotiana benthamiana leaves; 1 mM D-luciferin, CCD imaging at least 72 h post infiltration

Binder | binding [1] | binding [2]
B1 | binds | 
B2 |  | binds
